These results are taken from PubChem BioAssay AID1347423 (Functional Genomics Laboratory (NCATS/FGL), 2020).

Out of some 52,000 sequences screened, about 210 (0.4%) were called active.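 How the source made its calls: active means gene whose silencing raises cell survival under the drug, median off-target-corrected z-score across its silencing RNAs 2 or more; inactive means the rest.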 The list shows a part of the results.

The assay can be described thus: Resistance to Poly (ADP-Ribose) Polymerase inhibitor: Gene Identification via Genome-wide siRNA Screen. As to conditions: mouse BRCA2 R2336H ES cells, olaparib, CellTiter-Glo viability; hits give high values. Put shortly:
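Mouse BRCA2 R2336H ES cells were reverse-transfected with siRNA (20 nM final), treated at 48 h with 500 nM olaparib, and read by CellTiter-Glo after 72 h. Scores: MAD-based z per siRNA, median per gene, seed off-target correction.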
For orientation: Cellular ATP, detected with luciferase, serves as a proxy for viable cell number.
For GGAGUCCUAGAACACACAGTT against Snap29, the z-score was inactive: -2.41. In the case of GGACGUGUAGCUUGGAAUATT against Rnf26 it was inactive: 0.289; in that of “GCAACAGGUUCGUGUAACCTT against 2310039E09Rik”, inactive: 0.149. As for “GGUAUUUCGGCAACUAUCUTT against 9630044M06”, the z-score was inactive: 0.715.

In the case of GCGAAAAACGGUCACCUAUTT against Tom1l2, the z-score was inactive: -1.75. For the sequence GGAUGUAGCACUCAAACUUTT against Usp6nl, the z-score was inactive: -0.175. Consider CGGCAUCUAAUCAGUUUAATT against Farp1, for which the z-score is inactive: 1.35.

On to GCGACAGGACUUCAUUACUTT against Pit1, for which the z-score was inactive: -0.803. As for CGUAAACAUAUAGGACUGGTT against Ssty1, the z-score is inactive: 0.5.

With “GCCAGUUUAAGUCUCUCCATT against 8430437G11Rik”, the z-score was inactive: -0.391.

GGACAUCGUGCAAUACGCATT against Vangl1: the z-score is inactive: 1.53. In the case of CCAAACGUGCCUCUAAGUUTT against Vkorc1 it was inactive: 1.17. For the sequence GCAAAUUUGCCAAGUCAAATT against AW060207, the z-score was inactive: 0.659. In the case of “GGCCAGCUAGAGUUAUAUGTT against A430097D04Rik”, the z-score is inactive: 0.723. Next, CCUUCACUAUAUUCAACUUTT against Olfr479: inactive: -0.023; GGAAACACUUGAACAAAGATT against Tph2: inactive: -0.381. Next, CCACAACUAUGAGUCUAUUTT against Ech1: inactive: 0.791; GCACUUUGCCAGAUAUAACTT against Glipr1: inactive: 0.528. In the case of “GGGAGUAGCUCUAUUCAGATT against 2610044O15Rik”, the z-score is inactive: 0.428.

CCAAUGAUAGACUUUAUACTT against Mass1: the z-score was inactive: 0.0768.

Turning to GCCUCUGUUCUGACCAUAGTT against Gm128, the z-score was inactive: 0.7. With GCCCAUGGGAUGUUCAACUTT against Nos1, the z-score was inactive: -1.42. CCUCUGUUAUGGUAAUUCUTT against Olfr1323: the z-score was inactive: -1.11. Next, GCUAAGGCUUGGAAUGACATT against Maged1: inactive: -1.85.

Regarding CGUGAAUGAGUCUAUACUGTT against Nola3, the z-score is inactive: -1.25. In the case of “GGAGCAAUUCAAAUUCAAATT against 2310065K24Rik” it was inactive: 1.63; in that of GGACAAUUAAGAUAGCCAUTT against FHOS2, inactive: 0.599; in that of CCCAGGAACUAUGAGUUGUTT against Rnf31, inactive: 0.441. For GCAGAGCUAACCUCAUUUGTT against Gmeb2, the z-score is inactive: -2.11. “GGAGGAGGAGGACUUUGAUTT against 5830417I10Rik”: the z-score is inactive: -1.23. Next, GGCCCUGAGAGAAACAAGATT against Ly9: inactive: -1.37; GCCGUUCUCGGGUAAUGUUTT against Cpeb2: inactive: -1.17. In the case of GGCUGAAGGCAAAUCAAGATT against Cuzd1 it was inactive: 1.22; in that of GGCAAGAAAGAAAGGCCAATT against Rps23, inactive: -3.11. In the case of GCCAGGCUUACAAUAGUCCTT against Tpsg1 it was inactive: 2.28. As to GCUCCUACCCAAGGUUUAATT against Arl9, the z-score was inactive: -1.33. In the case of GGGACAUUUCUAUUAGAAUTT against Snx24 it was inactive: 0.332.

Turning to “GCUGUUCGUGAGGAUAACCTT against C030002N13Rik”, the z-score was inactive: -0.156. Consider “CCUCAUGUAAUUGGACCAATT against 2010208K18Rik”, for which the z-score was inactive: 1.67. Next, GCGCAAAGUCGAAUCCAGUTT against Vgll1: inactive: -0.143.

As to GCCUUAAUGAACCAGCACCTT against Tek, the z-score is inactive: 1.97. GCGAUUACCUGGAUAUCGGTT against Acvrl1: the z-score is inactive: -0.296. Take GGGCCAUGGAUAAGAAAAATT against Psmc5: the z-score was inactive: -2.52. Turning to GGCAACAUCCAAAAAUAAATT against Lass4, the z-score was inactive: -0.0306. Next, GGAAAAUUUUGAAAGACCUTT against Atf1: inactive: 3.25; GGGAGGUCAACCUUUUAAUTT against Cyp2j5: inactive: 1.22; CGUUUACCAGGAUAUCCAATT against Mmp27: inactive: -1.12. Next, GCUCACAACAUGAGAGUCATT against Atp6v0e: inactive: -1.48; GCCAGCAUAUGGACUACAATT against Ccnt2: inactive: -1.52; GCAAUCGUAAGUAAAUAGATT against Gas1: inactive: 0.0203.

Take GGAUCACAUCUAUGAGAAGTT against Fdx1: the z-score was inactive: -0.262.

As for GGAAAUCACCAACUUGGCCTT against Pou3f3, the z-score was inactive: -0.944. As to CGUGAUGUGAACGGAGGUATT against Six2, the z-score was inactive: -0.387. As for “CCGGUACCUCAAUUCAACUTT against 2810030E01Rik”, the z-score is inactive: 0.256. Next, CCUGUUAAACAGGACUAGUTT against AI597468: inactive: 0.62.

For CGACGAGAAAAUCACUCAGTT against Nkx6-1, the z-score is inactive: -0.748. Consider GCAAAUGCAUGACUUCUAUTT against Rnf134, for which the z-score is inactive: 0.0189. In the case of “GGAAAUGCAUCCAUGCGGUTT against 4933432P15Rik”, the z-score was inactive: -0.367. For “GGAAACUCCCUGAACCGGATT against 2700088M22Rik”, the z-score is inactive: 1.15.

For the sequence “GGAUGUUUGGACCAAUCACTT against 4930543L23Rik”, the z-score was inactive: -0.419. For the sequence “GGUUGGAAAAUGAAUGAAATT against 1110028E10Rik”, the z-score was inactive: 0.117.

Regarding GGAGAACCACUACAUGCAATT against Bcl2l1, the z-score is inactive: -1.22. As to CCACCAUUCUACAUAAUCATT against Abl1, the z-score was inactive: -0.42. Consider GGCACUGCACUUUAACAUATT against Serpinb7, for which the z-score was inactive: -0.339.

For the sequence “CCAAACGGAAGUAUCUUAUTT against 2810021O14Rik”, the z-score was inactive: -0.181.

Take GGAAGUCACUUGCCCAAGGTT against Prm2: the z-score is inactive: 0.683. In the case of GGAGUCUGUAUUCUCAACATT against Knsl7 it was inactive: -0.321; in that of GGAGAAAGUCAUCUUUGAUTT against Cdk5rap2, inactive: -0.542; in that of “GGGUUCUUUCCAAAGUUACTT against D030011O10Rik”, inactive: 0.456. For CGGAACACACCAAGAAUCUTT against Prkcabp, the z-score is inactive: 1.08. Next, “GGCGGAGAAAGUGUUCAUGTT against 5730568A12Rik”: inactive: 0.552; CCAAGGUCUAAAAAAAUAGTT against Adamts19: inactive: -0.651. Next, CCCUGUUACGAAGUUUAACTT against Slc17a7: inactive: -0.183. Regarding GGACCUUCUAGAAGACAAGTT against Gna11, the z-score is inactive: -0.0772. Take “GCACACUGAUGAACUUACCTT against 4933401N24Rik”: the z-score was inactive: 0.497.

Turning to GGCCAGAACUACGAAGCCATT against Capn12, the z-score was inactive: 1.78.

For the sequence GGACCAAGUAUCAUGAUGUTT against Zfp369, the z-score is inactive: 0.881. In the case of GGUGGAGAACCAUAUCACATT against Abcg4 it was inactive: 0.507; in that of GCUCAAACUUUACUAUACATT against Cdh6, inactive: -0.872. In the case of GGAAAAUGAGCAAGAAGAATT against Syt12 it was inactive: 0.512; in that of GGUAUAAAGGAUGCAUUCATT against Osmr, inactive: -0.811; in that of CCUUCCAUGGUGAGGAUAATT against Stim1, inactive: -2.35. GGAAAUGACCCACUCGUGGTT against Mllt2h: the z-score is inactive: 0.467. For the sequence GGGUAUCAUUACAGAUACGTT against Tpbg, the z-score is inactive: 1.5. Next, GCUUGGAAGACAUUGACCCTT against Brsk2: inactive: -0.948. Consider “GGGCUCCACUGUUGUUAUATT against 3110038L01Rik”, for which the z-score was inactive: 0.00798.

For the sequence “CCUAGACUUGAACAAACACTT against 2600001B17Rik”, the z-score was inactive: 2.75. On to CGAACAUUCCUUCCAUAACTT against Kcnd3, for which the z-score is inactive: 0.588. Take GGCUGAGAGUCCAAAAAGGTT against Dok3: the z-score is inactive: -1.2. Consider CCACCUUCCUAUGUUUGUATT against Ebf2, for which the z-score is inactive: 0.94. Turning to GCCCAAAAGUAUAAACCAGTT against Peg12, the z-score was inactive: -1.72. In the case of GGUCUCCCACCCAACGAUATT against Kbtbd2, the z-score is inactive: 0.175. In the case of GGAUCUGGAAUCACUGUUUTT against Lmnb2 it was inactive: 0.232; in that of GCUUGGUGUGGAAUUUUUUTT against Ppp2r1a, inactive: -0.223; in that of CCUGGAGAGCAUCCUUCUUTT against Olfr382, inactive: 0.973. In the case of GGCAGUAGCCUUGUCUGUCTT against Prrx2, the z-score was inactive: -1.64. In the case of CCAGUUUGGACAUUGGAAATT against Cyp26b1, the z-score is inactive: 0.0117. Next, CCAUCUACGUGGGACACAATT against Atp11a: inactive: -1.41. Next, CGUGUACAUAGACCAUAUATT against Olfr453: inactive: -0.513; GGAUAUUCCUGGACUGACATT against Rps6: inactive: -3.17. Turning to GGAUUCAUCAUCUGUUACUTT against Rit1, the z-score is inactive: 1.18. With GCCUAUUGAGAUCUACGGCTT against Elac1, the z-score is inactive: 0.977. In the case of “GGAAAUACCAUUCAAGUGUTT against 2810428C21Rik” it was inactive: 0.105. With GGGACUCAUGGGAUUGAAATT against Gm605, the z-score was inactive: 0.728.
